From patent US20260097126A1 (priority 2022, published 2026)

Assay: Fmoc solid-phase peptide synthesis; Rink resin; diimide, HATU, or HBTU
Conditions: whole synthesis, RP-HPLC

## PEPTIDE1{Y.[Aib].E.G.T.F.T.S.D.Y.S.I.[Aib].L.D.K.I.A.Q.Q.A.F.V.Q.W.L.I.A.G.G.P.S.S.G.A.P.P.P.S.[am]}|PEPTIDE2{[PhosC19].[gGlu].[PEG2].[PEG2]}$PEPTIDE1,PEPTIDE2,16:R3-4:R2$$$V2.0
  final HPLC purity: 95.0%

Some peptides are written in HELM: one residue between dots, names in brackets for other building blocks, links after the first $.
